Laboratory results reported in patent US7935689B2, “Compounds for the treatment of metabolic disorders” (Wellstat Therapeutics Corporation, priority 2006, dated 2011).
At least one compound was matched to its structure with a doubt left.

Test system: db/db mice
Experiment: Antidiabetic effects in db/db mice, second experiment (8 weeks of daily oral treatment)
Type: in vivo
Conditions: male db/db mice; after 8 weeks of treatment; compound 150 mg/kg, rosiglitazone 20 mg/kg; compared to vehicle-treated controls

In the case of CN(CCOc1ccc(CC2SC(=O)NC2=O)cc1)c1ccccn1 (centres unmarked) [rosiglitazone], the blood glucose is reported as “significantly lower” and the triglycerides is reported as “significantly lower”.
